The results in this text go back to patent publication US20020076719A1 (ROCKEFELLER UNIVERSITY, published 2002).

By UniProt entry, the sequences of proteins in these tests, tags left out. Chains listed by the source or under a name are the forms on record and can include a tag or linker.
UniProt O35144, other isoform, or with tags, fused parts or gaps: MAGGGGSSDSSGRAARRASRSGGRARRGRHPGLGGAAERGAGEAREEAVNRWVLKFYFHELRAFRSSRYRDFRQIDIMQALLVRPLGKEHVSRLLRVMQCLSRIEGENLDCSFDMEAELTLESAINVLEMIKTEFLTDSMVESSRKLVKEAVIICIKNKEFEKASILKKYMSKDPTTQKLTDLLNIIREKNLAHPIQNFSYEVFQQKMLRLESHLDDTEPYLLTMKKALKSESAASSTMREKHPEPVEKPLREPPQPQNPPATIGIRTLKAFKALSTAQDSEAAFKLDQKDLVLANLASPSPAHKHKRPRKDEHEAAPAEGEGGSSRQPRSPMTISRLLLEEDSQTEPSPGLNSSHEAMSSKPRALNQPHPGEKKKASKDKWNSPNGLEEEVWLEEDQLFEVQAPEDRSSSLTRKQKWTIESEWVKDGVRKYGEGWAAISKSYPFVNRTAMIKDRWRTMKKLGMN
UniProt P54274, other isoform, or with tags, fused parts or gaps: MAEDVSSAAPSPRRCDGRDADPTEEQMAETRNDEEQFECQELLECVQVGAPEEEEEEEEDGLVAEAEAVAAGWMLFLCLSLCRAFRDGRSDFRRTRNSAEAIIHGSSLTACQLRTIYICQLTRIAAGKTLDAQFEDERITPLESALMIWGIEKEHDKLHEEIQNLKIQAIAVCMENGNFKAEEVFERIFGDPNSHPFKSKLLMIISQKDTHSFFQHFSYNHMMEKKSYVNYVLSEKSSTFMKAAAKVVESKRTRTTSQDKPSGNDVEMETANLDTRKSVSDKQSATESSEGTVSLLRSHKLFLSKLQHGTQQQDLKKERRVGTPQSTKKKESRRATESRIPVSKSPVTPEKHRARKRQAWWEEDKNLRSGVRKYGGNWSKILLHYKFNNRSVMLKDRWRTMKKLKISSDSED
UniProt P70371, other isoform, or with tags, fused parts or gaps: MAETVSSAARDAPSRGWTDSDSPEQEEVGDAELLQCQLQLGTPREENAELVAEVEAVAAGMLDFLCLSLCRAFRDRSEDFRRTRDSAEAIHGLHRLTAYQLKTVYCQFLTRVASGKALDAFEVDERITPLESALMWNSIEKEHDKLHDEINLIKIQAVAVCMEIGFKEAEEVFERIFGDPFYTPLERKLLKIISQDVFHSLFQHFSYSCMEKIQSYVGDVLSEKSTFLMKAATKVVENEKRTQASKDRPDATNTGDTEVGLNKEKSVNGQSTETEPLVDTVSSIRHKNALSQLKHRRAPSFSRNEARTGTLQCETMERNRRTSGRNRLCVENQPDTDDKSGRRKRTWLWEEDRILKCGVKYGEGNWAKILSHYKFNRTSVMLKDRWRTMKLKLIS

Data set [1] deals with mTRF2 deltaN-49 (Mus musculus) (UniProt O35144). Nature of the data set: competition with a labelled probe. Particulars: single-stranded oligonucleotide; protein in a lysate after overexpression; protein details: FLAG; single-stranded DNA.
Data set [2] has the same target. Nature of the data set: EMSA. Particulars: supershifted by anti-FLAG; protein in a lysate after overexpression; protein details: FLAG; label: radiolabelled. Background: Mobility shift assays separate free from complexed probe on a gel.
For data set [3], the target named is TRF1 (HeLa TRF, native) (Homo sapiens) (UniProt P54274). The data set can be described thus: EMSA. Particulars: activity followed during purification; highly purified protein needs beta-casein added back; purified native protein; label: radiolabelled.
For data set [4], the target named is mTRF1 MTRF12 (Mus musculus) (UniProt P70371). Nature of the data set: EMSA. Particulars: reticulocyte lysate; protein translated in vitro; label: radiolabelled.
Data set [5] has as its target hTRF1 HTRF4.1 (XhoI site to stop) (Homo sapiens) (UniProt P54274). The data set can be described thus: EMSA. Particulars: reticulocyte lysate; protein translated in vitro; label: radiolabelled.
In data set [6] the target is mTRF2 full length (Mus musculus) (UniProt O35144). The data set can be described thus: EMSA. The settings on record: two complexes detected only in presence of anti-FLAG M2 antibody; no discrete complex without it; protein in a lysate after overexpression; protein details: N-terminal FLAG; label: radiolabelled.
The target in data set [7] is hTRF1 endogenous (HeLa whole cell extract) (Homo sapiens) (UniProt P54274). The data set can be described thus: EMSA. Particulars: complex supershifted by TRF1 antibody 5; protein in an extract; label: radiolabelled.

For at least one entry, the source does not settle the construct or the ends of the probe. For some assays here: Where cells or extracts were used, other partners may take part. For some assays here: A negative result means that nothing was seen under these conditions.

Consider “CCCTAACCCTAACCCTAACCCTAACCCTAACCCTAA [single-stranded [CCCTAA]6]”, for which the binding result in data set [1] is listed as “no binding”.
On the same count and under the same terms, next, “TTAGGGTTAGGGTTAGGGTTAGGGTTAGGGTTAGGG [single-stranded [TTAGGG]6]”: “no binding”.
For the sequence “GTACCCGGGGATCGTGACTCTAGAGGGGCCCTAACCCTAACCCTAACCCTAACCCTAACCCTAACCCTAACCCTAACCCTAACCCTAACCCTAACCCTAACCCTAACCCGGGTCGAATTCGATCTCTAGAGTCGACCTGCAGGCATGC (double strand) [[TTAGGG]12 restriction fragment probe]”, the binding result in data set [2], in data set [3], in data set [4], in data set [5], in data set [6] and in data set [7] was “binds” each time.
